No constants are given. Whether binding was seen depends on the method and setting. Some binding calls cover weakened binding; strength is not graded here. For some assays here: Sequences can lack the tags named with a protein.
Assays:
[1] = biological target: FlgV (BB0268), B. burgdorferi (B. burgdorferi) (UniProt Q44756); experiment: immunoblot after SDS-PAGE (higher molecular weight band); WT B. burgdorferi (PA001) lysed by sonication, fractionated by ultracentrifugation into soluble and membrane samples, Tris-Glycine gel, probed with anti-FlgV
[2] = biological target: BB0268-3XFLAG (FlgV with a C-terminal 3XFLAG tag) (B. burgdorferi) (UniProt Q44756); experiment: immunoblot after SDS-PAGE (higher molecular weight band); B. burgdorferi PA007 cells exposed to UV, lysed, BB0268-3XFLAG immunoprecipitated with anti-FLAG beads; total, supernatant and IP samples on a Tris-Glycine gel, probed with anti-FLAG

Row | Binder | binding [1] | binding [2]
1 | FlgV (BB0268), B. burgdorferi (natural protein, FlgV (BB0268) of Borrelia burgdorferi B31; ORF of 480 bp; antigen for the antibody was amino acids 58-159; two predicted transmembrane helices (amino acids 13 to 35 and 40 to 57); native flgV ORF amplified from B. burgdorferi A3 genomic DNA for the overexpression plasmid; Untagged protein; Strains, plasmids and primers are in Supplementary Data 1; also called bb0268 gene product; previously …) MFISRELKYILLTSVSALFISAVLGLFCGLSFFTILVRSLLQFVFFFVIGLLIEYIFKKYLSNLFSTELSGNMENKPQDDKKSDKDFKENLDFQNKNSLYENSQNISSSGDFIEEVKKYKFETEDVSRGSDKNKKMSFIEDNDPKVVADAIKTLMSKKE | binds | 
2 | BB0268-3XFLAG (FlgV with a C-terminal 3XFLAG tag) (protein, UniProt Q44756 1-159) MFISRELKYILLTSVSALFISAVLGLFCGLSFFTILVRSLLQFVFFFVIGLLIEYIFKKYLSNLFSTELSGNMENKPQDDKKSDKDFKENLDFQNKNSLYENSQNISSSGDFIEEVKKYKFETEDVSRGSDKNKKMSFIEDNDPKVVADAIKTLMSKKE |  | binds

Source: PMC11607428, “Broadly conserved FlgV controls flagellar assembly and Borrelia burgdorferi dissemination in mice” (Nature Communications, 2024)
